Assay results as given in PMC4834435.
Results are given in words; binding and its absence hold for the method and conditions named. For some of these results: In cells and extracts the contact can be indirect. Some entries that bind do so weakly or less than the wild type. Sequences can lack the tags named with a protein.

How the values were obtained:
Settings in all cases: remark: other sources report otherwise
[1] = target: T1, His-tagged Orc1 (Orc1-His), wild type (S. cerevisiae), P54784; experiment: HisTrap affinity column chromatography; HisTrap column with linear imidazole gradient elution of lysate of 293T cells co-overexpressing His-tagged Orc1 (wild type or mutant) and Orc2/3/4/5/6; fractions on 9% SDS-PAGE, Coomassie
T1 chain: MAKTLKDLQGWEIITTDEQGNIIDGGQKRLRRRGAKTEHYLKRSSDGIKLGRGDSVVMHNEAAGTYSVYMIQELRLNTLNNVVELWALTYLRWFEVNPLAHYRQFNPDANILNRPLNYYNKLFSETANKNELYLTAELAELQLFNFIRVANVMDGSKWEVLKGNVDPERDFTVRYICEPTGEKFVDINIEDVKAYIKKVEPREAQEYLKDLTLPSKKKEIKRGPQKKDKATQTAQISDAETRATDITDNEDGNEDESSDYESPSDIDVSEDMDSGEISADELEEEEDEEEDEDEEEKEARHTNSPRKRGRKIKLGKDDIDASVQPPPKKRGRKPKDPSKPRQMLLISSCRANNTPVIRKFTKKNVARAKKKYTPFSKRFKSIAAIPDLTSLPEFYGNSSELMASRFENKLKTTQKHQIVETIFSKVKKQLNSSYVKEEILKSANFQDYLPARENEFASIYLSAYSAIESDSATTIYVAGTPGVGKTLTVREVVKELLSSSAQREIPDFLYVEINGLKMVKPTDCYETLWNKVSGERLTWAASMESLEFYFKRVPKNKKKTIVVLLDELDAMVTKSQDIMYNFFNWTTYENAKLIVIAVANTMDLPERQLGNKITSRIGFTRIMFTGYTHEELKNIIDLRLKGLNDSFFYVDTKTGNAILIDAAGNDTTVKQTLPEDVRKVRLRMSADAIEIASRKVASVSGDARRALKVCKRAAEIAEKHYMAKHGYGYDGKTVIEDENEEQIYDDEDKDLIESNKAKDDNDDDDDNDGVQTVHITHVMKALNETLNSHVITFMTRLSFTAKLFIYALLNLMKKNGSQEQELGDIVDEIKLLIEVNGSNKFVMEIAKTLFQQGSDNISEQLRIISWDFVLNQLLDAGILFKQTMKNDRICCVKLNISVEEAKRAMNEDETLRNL

[2] = target: T1, His-tagged Orc1 (Orc1-His), wild type …; experiment: SEC; Superdex 200 in buffer H/0.2 (200 mM KCl) of the peak fractions after His affinity step and SP Sepharose; fractions on 9% SDS-PAGE, Coomassie; subunits co-expressed in 293T cells
[3] = target: T1, His-tagged Orc1 (Orc1-His), wild type …; experiment: pull-down; cleared lysates of 293T cells co-overexpressing Orc1-His, Orc2, Orc3, Orc4, Orc5 with or without Orc6; pulldown by the His tag; 9% SDS-PAGE, Coomassie staining
[4] = target: T1, His-tagged Orc1 (Orc1-His), wild type …; experiment: pull-down; MagneHis beads, 1 h, in lysis buffer (50 mM Hepes-KOH pH 7.6, 0.3% NP-40, 400 mM KCl, 17.5 mM imidazole) with nuclease-treated lysate of 293T cells co-overexpressing Orc1-His and Orc2/3/4/5; five washes, elution with 500 mM imidazole; SDS-PAGE, Coomassie

Measured: binding

B1: Orc2, P32833 1-620 (protein)
chain: MLNGEDFVEHNDILSSPAKSRNVTPKRVDPHGERQLRRIHSSKKNLLERISLVGNERKNTSPDPALKPKTPSKAPRKRGRPRKIQEELTDRIKKDEKDTISSKKKRKLDKDTSGNVNEESKTSNNKQVMEKTGIKEKREREKIQVATTTYEDNVTPQTDDNFVSNSPEPPEPATPSKKSLTTNHDFTSPLKQIIMNNLKEYKDSTSPGKLTLSRNFTPTPVPKNKKLYQTSETKSASSFLDTFEGYFDQRKIVRTNAKSRHTMSMAPDVTREEFSLVSNFFNENFQKRPRQKLFEIQKKMFPQYWFELTQGFSLLFYGVGSKRNFLEEFAIDYLSPKIAYSQLAYENELQQNKPVNSIPCLILNGYNPSCNYRDVFKEITDLLVPAELTRSETKYWGNHVILQIQKMIDFYKNQPLDIKLILVVHNLDGPSIRKNTFQTMLSFLSVIRQIAIVASTDHIYAPLLWDNMKAQNYNFVFHDISNFEPSTVESTFQDVMKMGKSDTSSGAEGAKYVLQSLTVNSKKMYKLLIETQMQNMGNLSANTGPKRGTQRTGVELKLFNHLCAADFIASNEIALRSMLREFIEHKMANITKNNSGMEIIWVPYTYAELEKLLKTVLNTL
binds: all assays above
